According to the supplement of paper PMC10331698:
± gives the standard deviation of the averaged measurements. Most values lie at the level of the controls, where differences are scatter.

Legend:
Test in all cases: level (log10 ratio to DMSO vehicle control); higher = higher biomarker level / cell amount than vehicle control
[1] = compound: O=C(O)C(F)(F)C(F)(F)C(F)(F)C(F)(F)C(F)(F)F [Perfluorohexanoic acid] (in DMSO)
Description: (§1)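 BioMAP Diversity Plus panel of 12 human primary cell co-culture systems (3C, 4H, LPS, SAg, BT, BF4T, BE3C, CASM3C, HDF3CGF, KF3CT, MyoF, Mphg). Compounds were added 1 h before stimulation and left for 24 h (MyoF 48 h; BT 72 h for soluble read-outs or 6 d for IgG). Biomarkers were read by ELISA, cytotoxicity by SRB, PBMC viability and proliferation by Alamar Blue. Each well value was divided by the mean of 8 DMSO control wells on the same plate and log10 transformed; duplicate blinded samples were tested at 4 concentrations.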

[2] = compound: OCC(F)(F)C(F)(F)C(F)(F)C(F)(F)C(F)(F)C(F)(F)F [6:1 Fluorotelomer alcohol] (in DMSO); details: 2200 nM
Description: as §1

[3] = compound: O=C(O)C(F)(F)C(F)(F)C(F)(F)OC(F)(C(F)(F)F)C(F)(F)F [Perfluoro-4-isopropoxybutanoic acid] (in DMSO); details: 2200 nM
Description: as §1

[4] = compound: OCC(F)(F)OC(F)(F)C(F)(F)OC(F)(F)CO [1H,1H,8H,8H-Perfluoro-3,6-dioxaoctane-1,8-diol] (in DMSO); details: 2200 nM
Description: as §1

[5] = compound: C=C(C)C(=O)OCCC(F)(F)C(F)(F)C(F)(F)C(F)(F)C(F)(F)C(F)(F)F [6:2 Fluorotelomer methacrylate] (in DMSO); details: 2200 nM
Description: as §1

[6] = compound: FC(F)(F)C(F)(F)C(F)(F)C(F)(F)CCI [1H,1H,2H,2H-Perfluorohexyl iodide] (in DMSO); details: 2200 nM
Description: as §1

[7] = compound: O=C(O)C(F)(OC(F)(F)C(F)(F)C(F)(F)F)C(F)(F)F [Ammonium perfluoro-2-methyl-3-oxahexanoate] (in Water)
Description: as §1

[8] = compound: OCCCC(F)(F)C(F)(F)C(F)(F)C(F)(F)C(F)(F)C(F)(F)C(F)(F)C(F)(F)F [3-(Perfluorooctyl)propanol] (in DMSO); details: 2200 nM
Description: as §1

[9] = compound: FC(F)(F)COC(OCC(F)(F)F)OCC(F)(F)F [tris(Trifluoroethoxy)methane] (in DMSO); details: 2200 nM
Description: as §1

[10] = compound: CNS(=O)(=O)C(F)(F)C(F)(F)C(F)(F)C(F)(F)C(F)(F)C(F)(F)C(F)(F)C(F)(F)F [N-Methylperfluorooctanesulfonamide] (in DMSO); details: 2200 nM
Description: as §1

[11] = compound: FC(F)(F)C(F)(F)CNCC(F)(F)C(F)(F)F [Bis(1H,1H-perfluoropropyl)amine] (in DMSO); details: 2200 nM
Description: as §1

[12] = compound: OCC(F)(F)C(F)(F)C(F)(F)C(F)F [1H,1H,5H-Perfluoropentanol] (in DMSO); details: 2200 nM
Description: as §1

[13] = compound: O=C(O)C(F)(OC(F)(F)C(F)(OC(F)(F)C(F)(OC(F)(F)C(F)(F)C(F)(F)F)C(F)(F)F)C(F)(F)F)C(F)(F)F [Perfluoro-(2,5,8-trimethyl-3,6,9-trioxadodecanoic)acid] (in DMSO); details: 370 nM
Description: as §1

[14] = compound: O=C(O)C(F)(F)C(F)(F)C(F)(F)C(=O)O [Hexafluoroglutaric acid] (in DMSO)
Description: as §1

[15] = compound: O=S(=O)(O)C(F)(F)C(F)(F)C(F)(F)C(F)(F)F [Perfluorobutanesulfonic acid] (in DMSO)
Description: as §1

[16] = compound: OCC(F)(F)C(F)(F)C(F)(F)C(F)(F)C(F)(F)C(F)(F)CO [1H,1H,8H,8H-Perfluorooctane-1,8-diol] (in DMSO); details: 2200 nM
Description: as §1

[17] = compound: O=C(O)CCC(F)(F)C(F)(F)C(F)(F)F [3:3 Fluorotelomer carboxylic acid] (in DMSO); details: 2200 nM
Description: as §1

Test System	level (log10) ([1]; 2200 nM)	level (log10) ([1]; 6700 nM)	level (log10) ([1]; 20000 nM)	level (log10) ([1]; 60000 nM)	level (log10) [2]	level (log10) [3]	level (log10) [4]	level (log10) [5]	level (log10) [6]	level (log10) ([7]; 2200 nM)	level (log10) ([7]; 6700 nM)	level (log10) ([7]; 20000 nM)	level (log10) ([7]; 60000 nM)	level (log10) [8]	level (log10) [9]	level (log10) [10]	level (log10) [11]	level (log10) [12]	level (log10) [13]	level (log10) ([14]; 2200 nM)	level (log10) ([14]; 6700 nM)	level (log10) ([14]; 20000 nM)	level (log10) ([14]; 60000 nM)	level (log10) ([15]; 2200 nM)	level (log10) ([15]; 6700 nM)	level (log10) ([15]; 20000 nM)	level (log10) ([15]; 60000 nM)	level (log10) [16]	level (log10) [17]
CASM3C:CXCL8/IL-8	0.015 ± 0.0042	0.0005 ± 0.021	0.007 ± 0.0099	0.0265 ± 0.028	0.01 ± 0.023	0.0435 ± 0.015	0.0055 ± 0.005	0.037 ± 0.042	0.031 ± 0.016	0.0165 ± 0.015	0.005 ± 0.0042	0.034 ± 0.024	0.056 ± 0.024	0.0125 ± 0.018	0.0035 ± 0.021	0.029 ± 0.023	0.002 ± 0.0085	0.0195 ± 0.0035	0.0065 ± 0.012	0.009 ± 0.038	-0.002 ± 0.017	-0.016 ± 0.014	0.0075 ± 0.0064	0.0385 ± 0.064	0.0255 ± 0.049	0.0255 ± 0.025	0.0375 ± 0.025	0.0015 ± 0.028	-0.001 ± 0.0057
3C:CXCL9/MIG	-0.006 ± 0.018	-0.0065 ± 0.012	-0.0045 ± 0.00071	0.0025 ± 0.012	0.0015 ± 0.021	0.006	-0.0035 ± 0.012	0.0015 ± 0.0035	0.0095 ± 0.00071	0 ± 0.0071	-0.0085 ± 0.011	-0.003 ± 0.0099	-0.004	0.0005 ± 0.016	-0.0065 ± 0.0078	0.0035 ± 0.013	0.0005 ± 0.0021	0.0065 ± 0.0064	0.003 ± 0.018	0.0035 ± 0.0064	-0.014 ± 0.0085	-0.005 ± 0.0042	-0.0075 ± 0.0035	0.002 ± 0.0028	0.009 ± 0.016	0.009 ± 0.017	0.0175 ± 0.0021	0.013 ± 0.0014	-0.008 ± 0.011
BE3C:CXCL11/I-TAC	0.011 ± 0.0085	0.008 ± 0.014	0.0065 ± 0.0064	0.027 ± 0.0042	0.0255 ± 0.011	-0.0055 ± 0.015	0.011 ± 0.0057	0.0005 ± 0.0064	-0.0035 ± 0.016	0.005 ± 0.0071	-0.011 ± 0.0057	0.0115 ± 0.0021	-0.0045 ± 0.0078	-0.004 ± 0.0028	-0.003 ± 0.0014	-0.0155 ± 0.012	-0.0015 ± 0.018	0.013 ± 0.0028	0.016 ± 0.035	-0.0095 ± 0.013	0.0045 ± 0.028	-0.002 ± 0.024	0.0045 ± 0.013	0.001 ± 0.013	0.0115 ± 0.012	0.0065 ± 0.00071	0.007 ± 0.0071	-0.006 ± 0.0014	0.0055 ± 0.026
4H:CD62P/P-selectin	-0.018 ± 0.051	0.0235 ± 0.064	0.0555 ± 0.032	0.0255 ± 0.028	-0.002 ± 0.11	0.015 ± 0.025	0.013 ± 0.031	-0.001 ± 0.041	-0.0175 ± 0.012	-0.0205 ± 0.057	-0.0475 ± 0.012	-0.0065 ± 0.03	-0.054 ± 0.048	-0.0345 ± 0.023	0.02 ± 0.076	0.0245 ± 0.0035	-0.0275 ± 0.019	-0.001 ± 0.0057	0.0015 ± 0.035	-0.0165 ± 0.015	0.0065 ± 0.0035	-0.035 ± 0.0014	-0.05 ± 0.064	0.007 ± 0.023	-0.0155 ± 0.035	0.0045 ± 0.016	-0.0085 ± 0.015	-0.0115 ± 0.022	0.0385 ± 0.073
